Record: PubChem BioAssay AID1671195 (Yale University, 2021)

Purpose: 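Regulators of LDL receptor activity judged by labelled LDL uptake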 (primary screen)
Cells: human Huh7 hepatoma cells
Reagent: siRNA pool against human genes, 18 nM
Time to read-out: about 2 to 2.5 days of knockdown, then 8 h LDL uptake
Conditions: DiI-labelled LDL at 30 µg/ml for 8 h, in lipoprotein-deficient serum medium
Measured: 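Fluorescent LDL signal imaged in cells, scaled to the plate median, robust z-score for each replicate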
Scale: robust z-score: higher = more LDL uptake after knockdown
Call rule: 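a gene counts as active if at least two replicate z-scores exceed ±2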
Here is one part, drawn at random, of about 22,000 reagents. About 1,510 of all reagents (6.9%) were called active. 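Active includes knockdowns raising or lowering LDL uptake; positive z-scores mean more uptake, negative mean less.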 Entries without a mark were called inactive. The numbers tell different reagents against one gene apart. No sequences are given here.

gene | reagent | robust z-score, replicate 1 | robust z-score, replicate 2 | robust z-score, replicate 3
SHOC1 (GeneID 158401) | 1 | 0.298 | -0.236 | -0.118
ZFHX2 (GeneID 85446) | 1 | 1.71 | 1.78 | 0.922
ZFHX2 (GeneID 85446) | 2 | 0.157 | 0.0429 | 0.0432
TGFB3 (GeneID 7043) | 1 | -0.162 | -0.496 | -1.16
SHOX2 (GeneID 6474) | 1 | -1.13 | -0.809 | 0.331
EML2 (GeneID 24139) | 1 | 0.312 | 0.766 | 0.481
CRMA (GeneID 253868) | 1 | -0.271 | 0.186 | 0.275
APOA5 (GeneID 116519) | 1 | -0.675 | -0.74 | -0.811
GPR15LG (GeneID 387695) | 1 | -0.343 | 0.143 | -0.0958
ITCH (GeneID 83737) | 1 | 0.253 | -0.334 | -0.816
PFKL (GeneID 5211) | 1 | -0.666 | -0.931 | -0.2
DERL1 (GeneID 79139) | 1 | -0.658 | 0.43 | -0.224
MAF1 (GeneID 84232) | 1 | -1.5 | -0.88 | -1.69
UGP2 (GeneID 7360) | 1 | 2.12 (active) | 2.77 | 2.48
ZBED8L (GeneID 221786) | 1 | -0.321 | -0.864 | -0.34
SLC2A4RG (GeneID 56731) | 1 | -0.094 | -0.248 | -0.298
GMPPB (GeneID 29925) | 1 | -0.528 | -0.597 | 0.593
LOC439966 (retired record) (GeneID 439966) | 1 | 0.215 | 0.379 | 0.000731
NODAL (GeneID 4838) | 1 | -1.41 | -1.72 | -0.725
ACTA1 (GeneID 58) | 1 | -0.676 | -0.267 | -0.0705
OR8K1 (GeneID 390157) | 1 | -1.25 | -1.06 | -0.939
OTUB2 (GeneID 78990) | 1 | -0.61 | -0.671 | -0.725
ZNF784 (GeneID 147808) | 1 | 0.329 | -1.19 | 0.698
TNFRSF10D (GeneID 8793) | 1 | 1.11 | 0.747 | 1.01
HOXB6 (GeneID 3216) | 1 | 0.376 | 0.596 | 0.9
GNG5 (GeneID 2787) | 1 | -0.69 | -0.493 | -0.419
MFGE8 (GeneID 4240) | 1 | 3.67 (active) | 3.52 | 2.51
XRCC6P2 (GeneID 389901) | 1 | -0.21 | -0.525 | -0.4
DDX51 (GeneID 317781) | 1 | 1.03 | 1.15 | 0.886
CISD3 (GeneID 284106) | 1 | -1.4 | -1.57 | -1.68
ZNF518B (GeneID 85460) | 1 | 0.861 | 0.853 | 0.508
GPRC5D (GeneID 55507) | 1 | -0.043 | 0.046 | 0.172
UST (GeneID 10090) | 1 | 1.84 | 0.852 | 1.76
TEAD1 (GeneID 7003) | 1 | 1.24 | 1.45 | 1.33
NDUFAF1 (GeneID 51103) | 1 | -1.76 | -0.368 | -0.766
ADAMTS10 (GeneID 81794) | 1 | -1.66 | -1.83 | -1.08
SLC25A1 (GeneID 6576) | 1 | -0.975 | -0.805 | -0.5
LOC401087 (retired record) (GeneID 401087) | 1 | -0.0294 | -0.362 | -0.307
CXorf58 (GeneID 254158) | 1 | -0.0728 | -0.111 | -0.0196
HECA (GeneID 51696) | 1 | 0.595 | -0.0614 | -1.63
RRN3 (GeneID 54700) | 1 | -0.12 | -0.256 | 0.0364
FMO2 (GeneID 2327) | 1 | -0.649 | 0.0808 | -0.728
CDC6 (GeneID 990) | 1 | 0.55 | 0.712 | 0.49
SECISBP2 (GeneID 79048) | 1 | 1.06 | 0.992 | 1.57
GGT5 (GeneID 2687) | 1 | -0.0721 | 0.947 | 0.215
ZNF780B (GeneID 163131) | 1 | -0.122 | -0.0296 | 0.423

Ordered by “robust z-score, replicate 2” (ascending): some entries from above.
gene | reagent | robust z-score, replicate 1 | robust z-score, replicate 2 | robust z-score, replicate 3
SHOX2 (GeneID 6474) | 1 | -1.13 | -0.809 | 0.331
TGFB3 (GeneID 7043) | 1 | -0.162 | -0.496 | -1.16
ZFHX2 (GeneID 85446) | 2 | 0.157 | 0.0429 | 0.0432
CRMA (GeneID 253868) | 1 | -0.271 | 0.186 | 0.275
EML2 (GeneID 24139) | 1 | 0.312 | 0.766 | 0.481
ZFHX2 (GeneID 85446) | 1 | 1.71 | 1.78 | 0.922
